# Data published in publication doi:10.1101/2020.03.02.973859.
# Results are given in words; binding and its absence hold for the method and conditions named. In cells and extracts the contact can be indirect. A yes stands for co-enrichment or nearness to the bait. Other partners may have been found.
# Target: T1, K+/Cl- co-transporter KCC2 (mouse (endogenous in mouse forebrain)) (UniProt Q91V14)
# T1 sequence: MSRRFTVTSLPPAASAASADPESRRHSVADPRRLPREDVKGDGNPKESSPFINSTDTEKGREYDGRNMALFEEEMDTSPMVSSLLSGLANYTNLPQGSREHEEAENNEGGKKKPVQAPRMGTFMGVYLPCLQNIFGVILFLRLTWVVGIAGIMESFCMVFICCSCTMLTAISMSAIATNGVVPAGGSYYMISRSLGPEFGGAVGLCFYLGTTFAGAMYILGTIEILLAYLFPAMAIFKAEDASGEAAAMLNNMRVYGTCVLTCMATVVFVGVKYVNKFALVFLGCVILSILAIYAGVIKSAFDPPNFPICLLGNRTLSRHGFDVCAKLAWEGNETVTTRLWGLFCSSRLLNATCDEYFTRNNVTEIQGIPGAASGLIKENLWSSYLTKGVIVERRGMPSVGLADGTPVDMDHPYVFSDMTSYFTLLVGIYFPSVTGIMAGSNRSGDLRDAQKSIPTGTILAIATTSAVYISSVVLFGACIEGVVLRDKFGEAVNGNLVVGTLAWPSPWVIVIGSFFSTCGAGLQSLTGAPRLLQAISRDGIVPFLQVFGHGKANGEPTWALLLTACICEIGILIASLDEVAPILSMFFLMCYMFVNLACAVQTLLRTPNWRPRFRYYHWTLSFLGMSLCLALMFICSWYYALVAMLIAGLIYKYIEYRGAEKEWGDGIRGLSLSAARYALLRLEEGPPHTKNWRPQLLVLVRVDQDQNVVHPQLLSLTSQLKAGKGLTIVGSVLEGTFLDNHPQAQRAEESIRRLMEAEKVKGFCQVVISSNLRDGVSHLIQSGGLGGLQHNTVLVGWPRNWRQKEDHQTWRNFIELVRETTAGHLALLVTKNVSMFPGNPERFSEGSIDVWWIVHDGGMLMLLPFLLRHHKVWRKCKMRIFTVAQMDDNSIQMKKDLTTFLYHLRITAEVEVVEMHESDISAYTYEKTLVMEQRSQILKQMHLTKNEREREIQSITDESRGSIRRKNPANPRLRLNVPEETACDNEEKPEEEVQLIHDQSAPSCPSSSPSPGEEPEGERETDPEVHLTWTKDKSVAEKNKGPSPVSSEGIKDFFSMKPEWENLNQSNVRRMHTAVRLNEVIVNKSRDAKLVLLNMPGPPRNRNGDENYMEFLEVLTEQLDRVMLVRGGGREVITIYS
# Assay: affinity purification with mass spectrometry
row,binding,Substance
1,binds,SCN2A (from UniProt B1AWN6 1-2006)
2,binds,ATP1A2 (from UniProt Q6PIE5 1-1020)
